Measurements reported in the supplement of paper PMC12067093, “Discovery and optimisation of a covalent ligand for TRIM25 and its application to targeted protein ubiquitination” (Chemical Science, 2025).
The list shows a part of the results.

Chains of the proteins cited; added tags and fusions are not shown. Lines headed by an entry give the natural chain unless they say otherwise; changes in a name come on top.
UniProt Q8TEQ6: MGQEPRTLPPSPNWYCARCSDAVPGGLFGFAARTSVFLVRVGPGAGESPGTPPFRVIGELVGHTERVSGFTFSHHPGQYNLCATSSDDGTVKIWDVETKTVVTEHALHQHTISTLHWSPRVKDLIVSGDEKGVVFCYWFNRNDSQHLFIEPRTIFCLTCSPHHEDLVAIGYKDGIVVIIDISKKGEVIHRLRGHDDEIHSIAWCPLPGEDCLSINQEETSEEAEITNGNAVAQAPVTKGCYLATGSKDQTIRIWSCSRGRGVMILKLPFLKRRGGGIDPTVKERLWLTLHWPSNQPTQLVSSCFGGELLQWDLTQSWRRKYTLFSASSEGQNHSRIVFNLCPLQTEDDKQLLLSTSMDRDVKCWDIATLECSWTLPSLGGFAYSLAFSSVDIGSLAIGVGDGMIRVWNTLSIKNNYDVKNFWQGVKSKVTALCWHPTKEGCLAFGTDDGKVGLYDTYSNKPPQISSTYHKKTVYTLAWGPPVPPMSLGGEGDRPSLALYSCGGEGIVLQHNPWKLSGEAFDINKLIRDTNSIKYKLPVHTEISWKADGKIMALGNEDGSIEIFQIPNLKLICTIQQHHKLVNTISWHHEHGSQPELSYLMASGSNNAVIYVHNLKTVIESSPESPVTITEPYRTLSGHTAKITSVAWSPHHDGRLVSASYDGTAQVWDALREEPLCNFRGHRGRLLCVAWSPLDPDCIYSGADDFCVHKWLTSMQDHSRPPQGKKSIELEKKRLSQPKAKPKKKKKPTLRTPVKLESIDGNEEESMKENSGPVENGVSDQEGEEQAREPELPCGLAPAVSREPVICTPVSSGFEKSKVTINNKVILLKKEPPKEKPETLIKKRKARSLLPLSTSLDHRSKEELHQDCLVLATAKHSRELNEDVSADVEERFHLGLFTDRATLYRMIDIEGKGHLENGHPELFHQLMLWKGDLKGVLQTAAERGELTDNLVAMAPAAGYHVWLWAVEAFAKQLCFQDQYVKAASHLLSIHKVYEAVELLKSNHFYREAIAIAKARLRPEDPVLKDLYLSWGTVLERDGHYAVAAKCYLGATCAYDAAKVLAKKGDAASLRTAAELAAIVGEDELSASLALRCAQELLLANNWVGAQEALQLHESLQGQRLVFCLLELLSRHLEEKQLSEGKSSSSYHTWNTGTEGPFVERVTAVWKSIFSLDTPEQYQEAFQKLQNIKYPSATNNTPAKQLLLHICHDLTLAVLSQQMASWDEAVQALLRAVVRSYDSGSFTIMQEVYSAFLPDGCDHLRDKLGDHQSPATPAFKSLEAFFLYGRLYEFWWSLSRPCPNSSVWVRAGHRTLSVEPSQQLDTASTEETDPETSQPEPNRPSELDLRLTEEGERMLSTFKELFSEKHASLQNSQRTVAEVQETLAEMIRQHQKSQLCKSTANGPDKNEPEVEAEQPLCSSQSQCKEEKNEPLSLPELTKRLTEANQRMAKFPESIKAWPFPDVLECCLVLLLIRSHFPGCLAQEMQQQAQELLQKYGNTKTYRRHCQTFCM
UniProt Q10472: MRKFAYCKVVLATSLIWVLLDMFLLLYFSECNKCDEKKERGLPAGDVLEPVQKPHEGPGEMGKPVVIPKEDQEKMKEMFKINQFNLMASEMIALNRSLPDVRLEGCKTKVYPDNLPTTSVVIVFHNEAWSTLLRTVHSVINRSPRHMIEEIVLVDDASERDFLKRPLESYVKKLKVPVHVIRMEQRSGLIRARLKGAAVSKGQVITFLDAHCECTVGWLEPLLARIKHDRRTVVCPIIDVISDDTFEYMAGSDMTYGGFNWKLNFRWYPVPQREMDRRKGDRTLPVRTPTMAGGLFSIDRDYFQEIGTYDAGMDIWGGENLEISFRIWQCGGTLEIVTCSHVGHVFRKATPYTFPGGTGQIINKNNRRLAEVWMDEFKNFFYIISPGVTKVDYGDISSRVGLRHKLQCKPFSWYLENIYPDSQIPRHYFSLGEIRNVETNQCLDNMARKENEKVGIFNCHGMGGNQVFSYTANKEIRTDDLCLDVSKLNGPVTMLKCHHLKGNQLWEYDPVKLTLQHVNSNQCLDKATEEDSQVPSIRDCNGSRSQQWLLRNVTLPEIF
UniProt P04062: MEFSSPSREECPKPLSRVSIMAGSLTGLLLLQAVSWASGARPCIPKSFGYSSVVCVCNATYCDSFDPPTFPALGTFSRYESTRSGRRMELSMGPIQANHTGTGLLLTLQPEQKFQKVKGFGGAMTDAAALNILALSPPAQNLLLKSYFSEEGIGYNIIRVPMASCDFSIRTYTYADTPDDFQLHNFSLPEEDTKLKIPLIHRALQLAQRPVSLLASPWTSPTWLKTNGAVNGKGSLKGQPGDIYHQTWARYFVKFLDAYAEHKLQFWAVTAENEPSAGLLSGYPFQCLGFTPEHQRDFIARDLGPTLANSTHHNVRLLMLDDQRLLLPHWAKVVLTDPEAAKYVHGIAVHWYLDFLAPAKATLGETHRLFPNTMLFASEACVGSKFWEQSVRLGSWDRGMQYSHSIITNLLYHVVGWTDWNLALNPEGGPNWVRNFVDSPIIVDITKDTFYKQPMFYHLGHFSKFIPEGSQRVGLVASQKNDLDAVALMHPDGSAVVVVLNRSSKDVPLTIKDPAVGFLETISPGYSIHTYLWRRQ
UniProt P22102: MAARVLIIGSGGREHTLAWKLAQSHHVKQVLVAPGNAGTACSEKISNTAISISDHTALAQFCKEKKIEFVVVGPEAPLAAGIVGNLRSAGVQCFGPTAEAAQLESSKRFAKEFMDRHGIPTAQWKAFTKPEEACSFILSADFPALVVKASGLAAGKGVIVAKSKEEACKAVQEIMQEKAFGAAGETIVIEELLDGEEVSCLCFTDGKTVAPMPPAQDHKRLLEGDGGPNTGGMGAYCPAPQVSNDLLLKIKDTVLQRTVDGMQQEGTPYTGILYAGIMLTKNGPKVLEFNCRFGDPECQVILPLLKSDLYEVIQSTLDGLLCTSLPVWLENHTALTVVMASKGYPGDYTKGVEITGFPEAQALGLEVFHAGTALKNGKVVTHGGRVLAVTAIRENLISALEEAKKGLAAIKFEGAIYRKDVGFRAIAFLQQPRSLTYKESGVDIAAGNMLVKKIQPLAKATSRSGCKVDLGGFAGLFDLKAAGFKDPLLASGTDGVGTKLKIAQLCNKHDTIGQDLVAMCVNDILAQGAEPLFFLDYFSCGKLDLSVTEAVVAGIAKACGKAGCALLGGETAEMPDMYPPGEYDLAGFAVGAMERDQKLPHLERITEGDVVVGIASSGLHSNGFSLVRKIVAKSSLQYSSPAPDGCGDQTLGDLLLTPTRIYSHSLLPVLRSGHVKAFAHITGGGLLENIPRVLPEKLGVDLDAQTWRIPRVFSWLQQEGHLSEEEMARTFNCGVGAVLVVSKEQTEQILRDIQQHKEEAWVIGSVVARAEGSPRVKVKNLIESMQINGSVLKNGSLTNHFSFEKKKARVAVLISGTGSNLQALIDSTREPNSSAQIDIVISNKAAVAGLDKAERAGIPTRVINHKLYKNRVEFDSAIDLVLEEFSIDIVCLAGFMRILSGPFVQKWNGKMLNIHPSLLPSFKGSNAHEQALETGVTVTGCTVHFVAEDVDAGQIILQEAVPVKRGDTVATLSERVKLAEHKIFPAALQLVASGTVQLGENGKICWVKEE
UniProt Q8N2G8: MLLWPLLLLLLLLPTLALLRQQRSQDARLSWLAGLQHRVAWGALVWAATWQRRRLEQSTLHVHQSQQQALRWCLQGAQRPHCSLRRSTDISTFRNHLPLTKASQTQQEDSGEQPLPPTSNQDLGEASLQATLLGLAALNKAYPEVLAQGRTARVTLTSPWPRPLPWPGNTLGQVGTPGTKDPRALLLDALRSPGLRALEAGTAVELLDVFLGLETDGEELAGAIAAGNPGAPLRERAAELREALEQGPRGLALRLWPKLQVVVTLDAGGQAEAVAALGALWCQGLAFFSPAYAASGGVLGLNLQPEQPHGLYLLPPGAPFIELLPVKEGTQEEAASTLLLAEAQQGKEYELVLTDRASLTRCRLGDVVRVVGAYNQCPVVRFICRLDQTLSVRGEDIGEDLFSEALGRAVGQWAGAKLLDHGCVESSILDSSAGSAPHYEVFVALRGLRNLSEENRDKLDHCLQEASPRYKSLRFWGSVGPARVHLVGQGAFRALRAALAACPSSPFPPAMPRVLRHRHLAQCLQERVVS
UniProt Q96RP9: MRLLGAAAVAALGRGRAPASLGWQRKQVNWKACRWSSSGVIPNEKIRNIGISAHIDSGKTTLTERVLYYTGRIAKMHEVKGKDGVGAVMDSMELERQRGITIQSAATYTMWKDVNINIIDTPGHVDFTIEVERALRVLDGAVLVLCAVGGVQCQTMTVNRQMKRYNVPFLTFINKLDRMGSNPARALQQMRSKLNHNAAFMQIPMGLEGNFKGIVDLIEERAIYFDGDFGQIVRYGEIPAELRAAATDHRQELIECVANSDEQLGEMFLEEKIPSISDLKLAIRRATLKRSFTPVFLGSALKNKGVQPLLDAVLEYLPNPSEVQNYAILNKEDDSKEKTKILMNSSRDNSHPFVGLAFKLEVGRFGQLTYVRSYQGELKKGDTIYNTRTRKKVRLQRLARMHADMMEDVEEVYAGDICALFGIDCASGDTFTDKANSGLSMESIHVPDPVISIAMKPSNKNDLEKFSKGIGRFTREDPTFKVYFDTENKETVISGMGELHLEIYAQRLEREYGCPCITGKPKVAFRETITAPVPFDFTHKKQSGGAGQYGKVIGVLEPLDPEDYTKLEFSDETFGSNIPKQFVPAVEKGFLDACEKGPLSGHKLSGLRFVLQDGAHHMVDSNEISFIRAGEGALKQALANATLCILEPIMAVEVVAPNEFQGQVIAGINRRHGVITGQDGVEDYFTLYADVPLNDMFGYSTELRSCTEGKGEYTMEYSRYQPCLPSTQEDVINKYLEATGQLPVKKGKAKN
UniProt Q06210: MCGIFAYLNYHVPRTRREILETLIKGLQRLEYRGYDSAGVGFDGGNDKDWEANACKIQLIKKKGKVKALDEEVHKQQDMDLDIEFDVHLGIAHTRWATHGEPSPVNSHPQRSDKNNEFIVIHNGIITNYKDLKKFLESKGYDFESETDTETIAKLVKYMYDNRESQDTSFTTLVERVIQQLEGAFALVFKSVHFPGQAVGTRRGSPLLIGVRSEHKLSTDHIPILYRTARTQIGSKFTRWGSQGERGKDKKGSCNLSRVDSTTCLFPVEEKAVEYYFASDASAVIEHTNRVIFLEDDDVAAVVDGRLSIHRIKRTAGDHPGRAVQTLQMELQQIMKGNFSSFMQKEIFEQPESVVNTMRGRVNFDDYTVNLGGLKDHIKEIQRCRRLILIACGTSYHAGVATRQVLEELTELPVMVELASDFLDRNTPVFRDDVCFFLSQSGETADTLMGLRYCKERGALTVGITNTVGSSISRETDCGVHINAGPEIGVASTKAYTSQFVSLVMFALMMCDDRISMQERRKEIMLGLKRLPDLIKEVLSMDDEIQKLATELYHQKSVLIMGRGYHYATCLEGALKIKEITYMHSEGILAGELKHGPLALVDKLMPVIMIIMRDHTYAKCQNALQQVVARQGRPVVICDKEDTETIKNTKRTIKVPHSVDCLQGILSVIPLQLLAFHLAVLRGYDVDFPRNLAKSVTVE
UniProt Q969S9: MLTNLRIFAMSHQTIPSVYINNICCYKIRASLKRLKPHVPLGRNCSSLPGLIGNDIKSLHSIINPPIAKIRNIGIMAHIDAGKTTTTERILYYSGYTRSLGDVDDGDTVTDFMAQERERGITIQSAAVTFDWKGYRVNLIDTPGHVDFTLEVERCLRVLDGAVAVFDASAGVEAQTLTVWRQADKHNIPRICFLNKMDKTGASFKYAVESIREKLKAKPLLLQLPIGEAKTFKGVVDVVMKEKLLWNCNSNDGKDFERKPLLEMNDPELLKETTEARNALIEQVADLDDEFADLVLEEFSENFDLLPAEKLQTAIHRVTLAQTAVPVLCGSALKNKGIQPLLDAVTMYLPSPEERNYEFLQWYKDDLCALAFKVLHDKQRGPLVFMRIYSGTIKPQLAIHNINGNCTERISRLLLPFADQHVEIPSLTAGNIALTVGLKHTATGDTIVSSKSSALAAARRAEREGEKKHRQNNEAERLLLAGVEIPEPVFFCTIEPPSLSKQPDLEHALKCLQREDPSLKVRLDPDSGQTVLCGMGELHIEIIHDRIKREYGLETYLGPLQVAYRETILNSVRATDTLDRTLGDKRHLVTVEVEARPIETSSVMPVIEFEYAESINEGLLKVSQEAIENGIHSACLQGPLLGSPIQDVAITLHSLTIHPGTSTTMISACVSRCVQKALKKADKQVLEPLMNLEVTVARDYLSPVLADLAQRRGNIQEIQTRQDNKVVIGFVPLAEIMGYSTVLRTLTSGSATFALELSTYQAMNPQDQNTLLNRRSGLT
UniProt O43716: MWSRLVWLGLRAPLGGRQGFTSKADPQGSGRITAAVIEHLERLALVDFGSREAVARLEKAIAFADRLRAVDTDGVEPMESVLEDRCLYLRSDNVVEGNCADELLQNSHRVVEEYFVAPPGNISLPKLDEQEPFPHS

Compound: CC1Cc2ccccc2N1C(=O)C1CCCN(C1)C(=O)CCl (mixture of isomers) [TRIM25 ligand 11 (diastereomer mixture)]
Experiment: probe-labelled cysteine peptide fold change vs DMSO (competition) (log2 fold change); higher = less target engagement (more negative = stronger competition)
Conditions: THP-1, incubation time: 4 h
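Further: competitive chemoproteomic profiling in live THP-1 cells with an iodoacetamide desthiobiotin (IA-DTB) probe, comparing probe-labelled peptide intensities in compound-treated cells against DMSO-treated controls.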

| Target | probe-labelled cysteine peptide fold change (10 µM) | probe-labelled cysteine peptide fold change (50 µM) |
| --- | --- | --- |
| GDAP1_Q8TB36_51_CEEHDVSLPLSEHNEPWFMR (UniProt Q8TB36) | 0.195 | 0.0966 |
| GALNT6_Q8NCL4_509_NLGTNQCLDVGENNR (UniProt Q8NCL4) | 0.354 | 0.12 |
| GDE1_Q9NZC3_327_SYYESHLGSSYITDSMVEDCEPHF (UniProt Q9NZC3) | 0.00784 | -0.357 |
| GEMIN5_Q8TEQ6_1421_NEPEVEAEQPLCSSQSQCK (UniProt Q8TEQ6) | 0.263 | 0.0469 |
| GALNT1_Q10472_523_LTLQHVNSNQCLDK (UniProt Q10472) | 0.00667 | -0.0307 |
| GBA_P04062_165_VPMASCDFSIR (UniProt P04062) | 0.00577 | 0.0973 |
| GBF1_Q92538_1707_IDCFLPHLR (UniProt Q92538) | 0.268 | 0.143 |
| GART_P22102_733_TFNCGVGAVLVVSK (UniProt P22102) | -0.0325 | 0.03 |
| GCLC_P48506_152_LGCPGFTLPEVKPNPVEGGASK (UniProt P48506) | -0.036 | 0.127 |
| GDAP2_Q9NXN4_148_TAAESSLYSCYR (UniProt Q9NXN4) | -0.0526 | 0.0667 |
| GART_P22102_93_SAGVQCFGPTAEAAQLESSK (UniProt P22102) | 0.0151 | -0.0827 |
| GALK1_P51570_243_RQCEEVAR (UniProt P51570) | -0.0598 | -0.0515 |
| GATD1_Q8NB37_133_ILQHFHSESKPICAVGHGVAALCCATNEDR (UniProt Q8NB37) | -0.0626 | -0.216 |
| GHDC_Q8N2G8_73_WCLQGAQRPHCSLR (UniProt Q8N2G8) | 0.249 | -0.0412 |
| GHDC_Q8N2G8_377_VVGAYNQCPVVR (UniProt Q8N2G8) | -0.0419 | -0.0199 |
| GIPC3_Q8TF64_152_IEAVCVGDSIEAINDHSIVGCR (UniProt Q8TF64) | 0.00901 | -0.0425 |
| GCAT_O75600_106_FICGTQSIHK (UniProt O75600) | 0.176 | -0.0443 |
| GDI2_P50395_302_VICILSHPIK (UniProt P50395) | -0.0268 | -0.00641 |
| GAR1_Q9NY12_88_CTTDENKVPYFNAPVYLENK (UniProt Q9NY12) | -0.443 | -0.515 |
| GCN1_Q92616_1595_CLQTLLDTK (UniProt Q92616) | 0.0151 | 0.0572 |
| GCC2_Q8IWJ2_466_EQCENLQQEK (UniProt Q8IWJ2) | 0.0474 | 0.078 |

| Target | probe-labelled cysteine peptide fold change (10 µM) | probe-labelled cysteine peptide fold change (50 µM) |
| --- | --- | --- |
| GATD1_Q8NB37_216_HLVTGQNASSTVPAVQNLLFLCGSR (UniProt Q8NB37) | -0.0122 | -0.0156 |
| GANAB_Q14697_423_WNYRDEADVLEVDQGFDDHNLPCDVIWLDIEHADGKR (UniProt Q14697) | -0.0428 | 0.0188 |
| GFM1_Q96RP9_256_AAATDHRQELIECVANSDEQLGEMFLEEK (UniProt Q96RP9) | 0.0399 | -0.234 |
| GARS_P41250_180_QHFIQEEQILEIDCTMLTPEPVLK (UniProt P41250) | -0.0562 | -0.00609 |
| GAPDH_P04406_156_IISNASCTTNCLAPLAK (UniProt P04406) | -0.0539 | -0.0462 |
| GFM1_Q96RP9_594_GFLDACEK (UniProt Q96RP9) | -0.0153 | -0.00558 |
| GALM_Q96C23_38_VDIISWGCTITALEVK (UniProt Q96C23) | -0.0103 | -0.034 |
| GINS4_Q9BRT9_53_FAPELLESKPEIVECVMEQLEHMEENLR (UniProt Q9BRT9) | -0.0556 | 0.0263 |
| GALK2_Q01415_349_KICEEAPENMVQLLGELMNQSHMSCR (UniProt Q01415) | 0.0715 | -0.26 |
| GIGYF1_O75420_261_GGCGEEEGR (UniProt O75420) | 0.11 | 0.15 |
| GCC1_Q96CN9_538_LSCEELEHQHQQEADDWKQELAR (UniProt Q96CN9) | 0.049 | 0.0295 |
| GFI1_Q99684_398+401_HTGFKPFGCDLCGK (UniProt Q99684) | -0.00152 | 0.171 |
| GAPVD1_Q14C86_741_LQELESCSGLGSTSDDTDVR (UniProt Q14C86) | 0.176 | -0.159 |
| GALK1_P51570_351_MTGGGFGGCTVTLLEASAAPHAMR (UniProt P51570) | 0.0133 | -0.0268 |
| GFPT1_Q06210_264_VDSTTCLFPVEEK (UniProt Q06210) | 0.0965 | 0.088 |
| GFM2_Q969S9_406_IYSGTIKPQLAIHNINGNCTER (UniProt Q969S9) | -0.0865 | -0.175 |
| GIT1_Q9Y2X7_674_HDSFVPCSEK (UniProt Q9Y2X7) | 0.0795 | -0.235 |
| GIMAP5_Q96F15_238_TGAGACQEDYR (UniProt Q96F15) | -0.0398 | -0.105 |
| GEMIN5_Q8TEQ6_341_IVFNLCPLQTEDDK (UniProt Q8TEQ6) | 0.146 | 0.144 |
| GCDH_Q92947_308_YGIAWGVLGASEFCLHTAR (UniProt Q92947) | -0.0176 | 0.183 |
| GEMIN2_O14893_264_DDERVPALNLLICLVSR (UniProt O14893) | 0.0933 | -0.181 |

| Target | probe-labelled cysteine peptide fold change (10 µM) | probe-labelled cysteine peptide fold change (50 µM) |
| --- | --- | --- |
| GANAB_Q14697_822_SSECMKDDPITLFVALSPQGTAQGELFLDDGHTFNYQTR (UniProt Q14697) | -0.0463 | 0.116 |
| GIT1_Q9Y2X7_11+14_AEVCADCSAPDPGWASISR (UniProt Q9Y2X7) | -0.0503 | 0.223 |
| GFM2_Q969S9_248_LLWNCNSNDGK (UniProt Q969S9) | 0.0226 | -0.218 |
| GATC_O43716_99_SDNVVEGNCADELLQNSHR (UniProt O43716) | -0.159 | -0.276 |
| GIPC1_O14908_189_EGSVIDHIHLISVGDMIEAINGQSLLGCR (UniProt O14908) | 0.0664 | -0.152 |
| GALNT6_Q8NCL4_165_SLGPDTRPPECVDQK (UniProt Q8NCL4) | -0.024 | 0.123 |
| GALT_P07902_75_HDPLNPLCPGAIR (UniProt P07902) | 0.0699 | -0.0264 |
| GALNT1_Q10472_482_TDDLCLDVSK (UniProt Q10472) | 0.0604 | 0.00641 |
| GAPDHS_O14556_319_VPTPDVSVVDLTCR (UniProt O14556) | -0.335 | -0.153 |
| GIMAP8_Q8ND71_214_FQDCVNEAASQEGDKPQGPR (UniProt Q8ND71) | -0.0867 | -0.321 |
| GDI2_P50395_202_TDDYLDQPCYETINR (UniProt P50395) | 0.127 | -0.0387 |
| GIGYF1_O75420_177_CGFEEGGAGPR (UniProt O75420) | 0.0176 | -0.22 |
| GCC2_Q8IWJ2_889_TRLENQNLLIQVEEVSQTCSK (UniProt Q8IWJ2) | 0.0253 | -0.161 |
| GDI1_P31150_202_TDDYLDQPCLETVNR (UniProt P31150) | -0.0491 | 0.103 |
| GIT1_Q9Y2X7_35_GVLVCDECCSVHR (UniProt Q9Y2X7) | 0.131 | -0.046 |
| GAPDH_P04406_247_VPTANVSVVDLTCR (UniProt P04406) | -0.0332 | 0.00651 |
| GALNT1_Q10472_459_VGIFNCHGMGGNQVFSYTANK (UniProt Q10472) | -0.125 | -0.0381 |
| GALK2_Q01415_379_DMYECSCPELDQLVDICR (UniProt Q01415) | -0.151 | 0.282 |
| GARS_P41250_444_QHMENEMAHYACDCWDAESK (UniProt P41250) | 0.0552 | 0.0473 |
| GATAD1_Q8WUU5_12_PLGLKPTCSVCK (UniProt Q8WUU5) | 0.124 | 0.0534 |
| GATAD2B_Q8WXI9_444_ILCEQCMTSNQK (UniProt Q8WXI9) | -0.15 | -0.124 |

| Target | probe-labelled cysteine peptide fold change (10 µM) | probe-labelled cysteine peptide fold change (50 µM) |
| --- | --- | --- |
| GGNBP2_Q9H3C7_586_DTHPESCCSSEK (UniProt Q9H3C7) | -0.224 | -0.312 |
| GEMIN4_P57678_382_QVVSELAECVR (UniProt P57678) | 0.0692 | -0.055 |
| GATAD1_Q8WUU5_223_KMEYLEFVCHAPSEYFK (UniProt Q8WUU5) | -0.245 | 0.0273 |
| GBA_P04062_381_LFPNTMLFASEACVGSK (UniProt P04062) | 0.0348 | 0.0286 |
| GANAB_Q14697_41_TCEESSFCK (UniProt Q14697) | 0.0619 | 0.142 |
| GATD1_Q8NB37_132_ILQHFHSESKPICAVGHGVAALCCATNEDR (UniProt Q8NB37) | 0.062 | 0.149 |
| GEMIN5_Q8TEQ6_572_LICTIQQHHK (UniProt Q8TEQ6) | 0.154 | 0.0754 |
| GGPS1_O95749_247_YCVHYLEDVGSFEYTR (UniProt O95749) | 0.0621 | 0.00613 |
| GEMIN5_Q8TEQ6_82_VSGFTFSHHPGQYNLCATSSDDGTVK (UniProt Q8TEQ6) | 0.376 | 0.024 |
| GALK2_Q01415_407_LTGAGWGGCTVSMVPADKLPSFLANVHK (UniProt Q01415) | -0.454 | -0.235 |
| GFPT1_Q06210_55_DWEANACK (UniProt Q06210) | -0.0786 | -0.0864 |
| GDI2_P50395_335_SDIYVCMISFAHNVAAQGK (UniProt P50395) | 0.0103 | 0.126 |
| GATM_P50440_407_NANSLGGGFHCWTCDVR (UniProt P50440) | 0.195 | -0.119 |
| GCFC2_P16383_595_VILEEHSTCENEVSK (UniProt P16383) | 0.0251 | -0.211 |
| GBF1_Q92538_1414_DAAHITPDNFELCVK (UniProt Q92538) | 0.359 | 0.38 |
| GCC2_Q8IWJ2_92_AETEQQCLSLKK (UniProt Q8IWJ2) | 0.0131 | -0.0205 |
| GCC2_Q8IWJ2_92_AETEQQCLSLK (UniProt Q8IWJ2) | 0.0658 | 0.339 |
| GGCT_O75223_144_KIICMGAK (UniProt O75223) | -0.118 | -0.195 |
| GALK2_Q01415_303_CLGISLEELR (UniProt Q01415) | 0.063 | 0.191 |
| GCFC2_P16383_336_IYVENLIDCLNEK (UniProt P16383) | 0.0405 | 0.116 |

Looked up one by one from the entries so far:

| Target | probe-labelled cysteine peptide fold change (10 µM) | probe-labelled cysteine peptide fold change (50 µM) |
| --- | --- | --- |
| GCC2_Q8IWJ2_92_AETEQQCLSLK (UniProt Q8IWJ2) | 0.0658 | 0.339 |
| GALK2_Q01415_303_CLGISLEELR (UniProt Q01415) | 0.063 | 0.191 |
| GCFC2_P16383_336_IYVENLIDCLNEK (UniProt P16383) | 0.0405 | 0.116 |
